Measurements published in PubChem BioAssay AID504847 (National Center for Advancing Translational Sciences (NCATS), 2011).
“And” between values parts separate entries of the source, which are not always exact repeats. Equal entries are not always repeated. Out of some 400,000 compounds screened, about 3,700 (0.93%) were called active. The shares of active, inactive and inconclusive entries below differ from those in the screen. Calls follow the shape of the dose curve; as a rule, active = well fitted inhibition curve with a large enough effect; inconclusive = small, poorly fitted or top-dose-only effect, or another doubt; inactive = no such curve, though single readings can be large or run the other way. Potencies of inconclusive entries are doubtful fits and often do not repeat. Where a structure was tested more than once in an assay, its records may differ in their call.

Chains of the proteins cited; added tags and fusions are not shown. Lines headed by an entry give the natural chain unless they say otherwise; changes in a name come on top.
UniProt P11473: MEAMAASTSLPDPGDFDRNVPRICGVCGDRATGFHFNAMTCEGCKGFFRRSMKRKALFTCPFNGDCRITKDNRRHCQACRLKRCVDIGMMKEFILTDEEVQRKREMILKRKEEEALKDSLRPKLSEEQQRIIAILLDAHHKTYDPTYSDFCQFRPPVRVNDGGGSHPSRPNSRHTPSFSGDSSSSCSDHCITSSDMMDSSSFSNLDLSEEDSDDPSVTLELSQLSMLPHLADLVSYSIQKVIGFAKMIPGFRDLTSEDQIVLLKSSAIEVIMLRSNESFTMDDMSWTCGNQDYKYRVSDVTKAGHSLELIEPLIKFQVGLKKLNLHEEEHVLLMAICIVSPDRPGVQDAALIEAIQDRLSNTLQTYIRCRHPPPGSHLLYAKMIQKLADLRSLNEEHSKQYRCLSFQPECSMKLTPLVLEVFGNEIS

Target: Vitamin D3 receptor (Homo sapiens) (UniProt P11473)
Assay: Inhibitors of the vitamin D receptor (VDR): qHTS
Conditions: VDR-SRC2-3 peptide fluorescence polarization, 2 h; max response, negative = inhibition: stronger effect = lower value
Procedure, shortened: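 Fluorescence polarization assay of small-molecule disruption of VDR binding to coregulator peptide SRC2-3. Compounds and controls pin-transferred, then read after 2 h incubation at ambient room temperature.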
% is scaled to controls: 0 for no effect and ±100 for the full control effect; potency is read from the fitted curve at half-maximal effect.

| Structure (SMILES) | max response, negative = inhibition | Potency |
| --- | --- | --- |
| Cc1cc(CNC(=O)CC2C(=O)NCCN2Cc2ccccc2C(F)(F)F)nn1C (centres undefined) | inactive: -7.86% |  |
| COc1ccc(NC(=O)c2c(N)no[n+]2[O-])c(OC)c1 |  | inconclusive: 89.1 µM [inhibitor, single point] |
| Cc1c(C)n(CCc2ccccc2)c2ncnc(NCCCN(C)C)c12 | inactive: -6.22% |  |
| CC(C)CNC(=O)COC(=O)c1c2c(nc3ccccc13)CCC2 | inactive: 12.1% |  |
| O=C(NC(=S)Nc1cccc(F)c1)c1cccc([N+](=O)[O-])c1 |  | inconclusive: 100 µM [inhibitor, partial curve, poor fit] |
| CCc1ccccc1NC(=O)COc1ccc2c(c1)OCO2 |  | inconclusive: 56.2 µM [inhibitor, partial curve, poor fit] |
| Cc1cccn2c(Nc3ccc4c(c3)OCCO4)c(-c3ccc(Br)o3)nc12 |  | inconclusive: 79.4 µM [inhibitor, partial curve] |
| CCOc1ccccc1N1CC(C(=O)N2CCc3ccccc3C2)CC1=O (centres undefined) |  | inconclusive: 31.6 µM [inhibitor, partial curve, poor fit] |
| Cc1ccc(NC(=O)c2nc(S(=O)(=O)Cc3cccc(C)c3)ncc2Cl)cc1 |  | inconclusive: 28.2 µM [inhibitor, single point] |
| COc1ccc(-n2nnnc2SCC(=O)NCc2cccs2)cc1 |  | inconclusive: 79.4 µM [inhibitor, partial curve, poor fit] |
| Cc1cccc(N2CCN(C(=O)C3CCN(Cc4nc(-c5ccc(Cl)cc5)oc4C)CC3)CC2)c1C | inactive: 4.92% |  |
| Fc1cccc(NCc2ccoc2)c1 | inactive: -7.57% |  |
| Cc1cccc2cc3c(nc12)SC(=NCC1CCCO1)N(Cc1ccco1)C3 (centres undefined) |  | inconclusive: 56.2 µM [inhibitor, partial curve, poor fit] |
| CCC(C(=O)NCCC1=CCCCC1)n1nc(C)c2c(C)n(-c3ccccc3)nc2c1=O (centres undefined) |  | inconclusive: 39.8 µM [inhibitor, single point] |
| Cc1ccc(C)c(NC(=S)NCCCN2CCOCC2)c1 |  | inconclusive: 79.4 µM [inhibitor, partial curve, poor fit] |
| COc1ccc(CCN(C)Cc2ccc(OC)c(OCc3ccccc3)c2)cc1OC | inactive: 8.6% |  |
| Cc1cccc2c1N(CCOc1ccccc1)C(=O)C2=O |  | inconclusive: 35.5 µM [inhibitor, partial curve] |
| COc1ccccc1NC(CC(=O)c1ccccc1)C(=O)OCC(=O)c1ccc(F)cc1 (centres undefined) | inactive: -19.6% |  |
| O=C1C2=C(Nc3ccccc3SC2c2ccc(Cl)c(Cl)c2)c2ccccc21 (centres undefined) | inactive: -9.64% |  |
| COc1ccc(NC(=O)CN(C)S(=O)(=O)c2ccc(C(=O)N3CCOCC3)s2)cc1 | inactive: -0.782% |  |
| O=C(/C=C\c1ccccc1OC(=O)c1ccccc1F)c1cc2ccccc2o1 |  | active: 14.1 µM |
| Cc1cc(SCC(=O)Nc2ccc(Cl)cc2)nc2ccccc12 |  | inconclusive: 89.1 µM [inhibitor, single point] |
| COc1cccc(NC(=O)c2nc(S(C)(=O)=O)ncc2Cl)c1 |  | active: 20 µM |

A second format for some results above:
Structure (SMILES)	max response, negative = inhibition	Potency
CCC(C(=O)NCCC1=CCCCC1)n1nc(C)c2c(C)n(-c3ccccc3)nc2c1=O (centres undefined)		inconclusive: 39.8 µM [inhibitor, single point]
Cc1ccc(C)c(NC(=S)NCCCN2CCOCC2)c1		inconclusive: 79.4 µM [inhibitor, partial curve, poor fit]

Next entries follow.

| Structure (SMILES) | max response, negative = inhibition | Potency |
| --- | --- | --- |
| O=C(N/N=C/C(Br)=C/c1ccccc1)c1n[nH]c2c1CCC2 |  | inconclusive: 56.2 µM [inhibitor, partial curve] |
| Cc1ccc(C(=O)Oc2ccc(C(=S)N3CCOCC3)cc2)cc1 |  | inconclusive: 89.1 µM [inhibitor, single point] |
| COc1cc(SC)ccc1C(=O)Nc1cccc(S(=O)(=O)NC2=NCCCCC2)c1 | inactive: 3.72% |  |
| Cc1sc2nc(CSC(C)C(=O)NC3(C#N)CCCCC3)[nH]c(=O)c2c1C (centres undefined) |  | inconclusive: 63.1 µM [inhibitor, partial curve, poor fit] |
| CN1CCN(C(=O)C2=C[C@H](c3coc4ccccc4c3=O)C[C@H](OCc3ccc(CO)cc3)O2)CC1 | inactive: -8.11% |  |
| COc1ccc(-c2cc3nc(C)c(CCC(=O)Nc4ccc(F)cc4F)c(C)n3n2)c(OC)c1 | inactive: -2.01% |  |
| O=[N+]([O-])c1cnccc1Nc1ccc(F)cc1 | inactive: 10.7% |  |
| CN(C)c1ccc(-c2cc(N(C)Cc3ccco3)ncn2)cc1 |  | inconclusive: 39.8 µM [inhibitor, partial curve] |
| Cc1ccc(S(=O)(=O)N(C)C)cc1NC(=O)COC(=O)Cc1ccc(Br)cc1 |  | inconclusive: 79.4 µM [inhibitor, single point] |
| CCCN1CCCc2cc(CN)ccc21 |  | active: 28.2 µM |
| C=C1c2ccccc2O[C@H](C(=O)OCC)[C@@H]1CCC(C)C (tested in a mixture with another compound) |  | inconclusive: 126 µM [inhibitor, partial curve, poor fit] |
| O=[N+]([O-])/C=C/c1ccc2c(ccn2Cc2ccccc2)c1 |  | active: 6.31 µM |
| Cc1cc(NC(=O)CSc2nnc(-c3ccncc3)n2N)ccc1Br | inactive: -17.5% |  |
| CCCCC(=O)Nc1ccccc1N1CCN(c2ccc(F)cc2)CC1 |  | inconclusive: 70.8 µM [inhibitor, single point] |
| O=C(c1ccc2c(c1)OCO2)N1CCN(c2ccc(C(F)(F)F)cn2)CC1 | inactive: -4.76% |  |
| CCOc1cc2[nH]c(=S)n(CCN3CCCCC3CC)c(=O)c2cc1OCC (centres undefined) | inactive: 22.6% |  |
| O=C(/C=C/Sc1ncn[nH]1)c1ccc(Cl)cc1 |  | active: 39.8 µM |
| O=C1/C(=C\c2ccsc2)NC(=S)N1c1ccccc1 |  | inconclusive: 89.1 µM [inhibitor, single point] |
| COc1ccc(OC)c(-c2noc(N3CCN(c4cc(Cl)ccc4C)CC3)n2)c1 | inactive: 13.2% |  |
| COC(=O)c1ccccc1NC(=O)c1nc(S(=O)(=O)Cc2ccccc2)ncc1Cl |  | inconclusive: 3.98 µM [inhibitor, full curve, poor fit] |
| Cc1ccc(-c2ccc(C(=O)O)o2)cc1Cl | inactive: -2.77% |  |
| CCSc1nc(=S)cc(C)[nH]1 |  | active: 79.4 µM |

| Structure (SMILES) | max response, negative = inhibition | Potency |
| --- | --- | --- |
| CC(c1ccccc1)c1nnc(NC(=O)c2ccc3c(c2)OCO3)s1 (centres undefined) | inactive: 14.5% |  |
| Cc1c(Cl)c(C(F)F)nn1CC(=O)NC1C(=O)N2C(C(=O)O)=C(CSc3nnnn3C)CSC12 (centres undefined) |  | inconclusive: 89.1 µM [inhibitor, single point] |
| Cc1cc(=O)[nH]c(N=N/C(=N/Nc2ccc(O)cc2)c2ccccc2)n1 | inactive: -24.4% |  |
| CCOC(=O)c1cc2c(=O)n3ccccc3nc2n(Cc2ccco2)c1=NC(=O)c1ccccc1OC |  | active: 56.2 µM |
| COc1ccc(CN2CCNC(=O)C2CC(=O)NCC2CCOCC2)c(F)c1 (centres undefined) | inactive: -10.4% |  |
| Nc1nc2ccccc2n1C(=O)c1ccc(F)cc1 |  | inconclusive: 70.8 µM [inhibitor, partial curve, poor fit] |
| CCOc1ccc(Nc2ccc([N+](=O)[O-])c3nonc23)cc1 |  | inconclusive: 100 µM [inhibitor, partial curve, poor fit] |
| CCN(CC)CCOC(=O)c1cccc2c1-c1ccccc1C2O (centres undefined) |  | inconclusive: 89.1 µM [inhibitor, partial curve, poor fit] |
| COc1cc(C(=S)N2CCN(C(c3ccccc3)c3ccccc3)CC2)cc(OC)c1O |  | inconclusive: 89.1 µM [inhibitor, partial curve, poor fit] |
| O=C(NC1CCCCCC1)C1CCCN1S(=O)(=O)c1cccc2cccnc12 (centres undefined) |  | inconclusive: 12.6 µM [inhibitor, full curve, poor fit] |
| COc1cc(O)c(C(=O)/C=C/c2ccccc2)c(OC)c1 |  | active: 14.1 µM |
| Cc1ccc(C2NC(=O)CCC2[N+](=O)[O-])cc1 (centres undefined) |  | inconclusive: 28.2 µM [inhibitor, single point] |
| CC(C)c1ccc(/C=C2\SC(=S)N(CCC(=O)N3CCCCC3CCO)C2=O)cc1 (centres undefined) |  | inconclusive: 79.4 µM [inhibitor, partial curve] |
| CCCc1nn(C)c2c(=O)[nH]c(-c3cc(S(=O)(=O)N4CCN(C)CC4)ccc3OCC)nc12 | inactive: 16% and inactive: 2.3% | inconclusive: 89.1 µM [inhibitor, partial curve] |
| CN(C(=O)C1CCC(=O)N(C2CC2)C1)C1CCCCC1 (centres undefined) | inactive: 2.04% |  |
| CCOc1ccc(-c2c(C)nn3c(C)c(C(=O)NCC(C)c4ccccc4)cnc23)cc1OCC (centres undefined) | inactive: 3.59% |  |
| COc1cc(-c2noc(C)c2C#CC2(N)CCCCC2)cc(OC)c1OC |  | inconclusive: 89.1 µM [inhibitor, partial curve, poor fit] |
| Cc1cccc(-n2c(O)c(C=Nc3cccc(O)c3)c3ccccc3c2=O)n1 |  | inconclusive: 35.5 µM [inhibitor, partial curve, poor fit] |
| N#C/C(=C\c1cccs1)C(=O)Nc1nccs1 |  | inconclusive: 56.2 µM [inhibitor, partial curve, poor fit] |
| CC1(C)OC(=O)C(=CNC(=O)c2c(F)cccc2F)C(=O)O1 |  | inconclusive: 79.4 µM [inhibitor, single point] |
| CC(=O)N1CCN(c2ccc(NCc3cccc4ccccc34)cc2)CC1 |  | inconclusive: 35.5 µM [inhibitor, single point] |
| Cc1ccc(C(=O)/C=C/c2c(C)nn(-c3ccccc3)c2Cl)cc1 |  | inconclusive: 50.1 µM [inhibitor, partial curve, poor fit] |
